Results reported in the supplement of paper PMC10849652.
The list shows a part of the results.

Amino acid sequences for entries named in this document (tags omitted). A change or cut given only in a name is not applied to a line headed by its entry.
UniProt Q96KR4: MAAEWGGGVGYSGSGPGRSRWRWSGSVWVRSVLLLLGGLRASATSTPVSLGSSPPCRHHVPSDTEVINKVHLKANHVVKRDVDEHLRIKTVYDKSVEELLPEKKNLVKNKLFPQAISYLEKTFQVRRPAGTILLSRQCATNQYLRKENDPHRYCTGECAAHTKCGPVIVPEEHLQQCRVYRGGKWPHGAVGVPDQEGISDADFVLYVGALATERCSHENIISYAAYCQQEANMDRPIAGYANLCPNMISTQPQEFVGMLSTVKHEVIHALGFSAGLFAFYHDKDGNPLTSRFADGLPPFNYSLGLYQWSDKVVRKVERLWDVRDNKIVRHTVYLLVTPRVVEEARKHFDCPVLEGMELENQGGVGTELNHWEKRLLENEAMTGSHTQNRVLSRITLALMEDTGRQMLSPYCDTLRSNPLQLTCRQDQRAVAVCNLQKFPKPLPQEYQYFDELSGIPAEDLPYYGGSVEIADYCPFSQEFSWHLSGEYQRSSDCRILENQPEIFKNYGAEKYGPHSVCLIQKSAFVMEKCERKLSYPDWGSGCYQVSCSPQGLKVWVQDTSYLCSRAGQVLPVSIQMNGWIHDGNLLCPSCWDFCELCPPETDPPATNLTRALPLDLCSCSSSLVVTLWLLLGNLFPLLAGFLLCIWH
UniProt O15243: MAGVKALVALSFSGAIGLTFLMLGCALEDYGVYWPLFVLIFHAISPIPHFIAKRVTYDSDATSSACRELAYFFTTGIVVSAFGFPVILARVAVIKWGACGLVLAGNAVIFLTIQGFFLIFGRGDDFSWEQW
UniProt Q52LA3: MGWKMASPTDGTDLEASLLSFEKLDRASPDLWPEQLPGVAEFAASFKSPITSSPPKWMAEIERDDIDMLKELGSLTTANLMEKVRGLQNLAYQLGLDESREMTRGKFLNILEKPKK
UniProt Q9BQD3: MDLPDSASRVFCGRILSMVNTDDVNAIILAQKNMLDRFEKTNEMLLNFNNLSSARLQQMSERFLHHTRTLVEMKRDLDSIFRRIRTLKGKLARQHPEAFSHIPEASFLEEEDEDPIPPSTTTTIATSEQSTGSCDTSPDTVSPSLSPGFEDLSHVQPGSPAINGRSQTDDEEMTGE
UniProt Q3ZCW2: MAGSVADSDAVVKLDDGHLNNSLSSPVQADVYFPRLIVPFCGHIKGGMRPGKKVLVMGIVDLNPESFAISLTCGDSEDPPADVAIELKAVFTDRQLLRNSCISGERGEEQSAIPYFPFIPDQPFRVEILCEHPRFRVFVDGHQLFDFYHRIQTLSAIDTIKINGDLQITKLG
UniProt P11047: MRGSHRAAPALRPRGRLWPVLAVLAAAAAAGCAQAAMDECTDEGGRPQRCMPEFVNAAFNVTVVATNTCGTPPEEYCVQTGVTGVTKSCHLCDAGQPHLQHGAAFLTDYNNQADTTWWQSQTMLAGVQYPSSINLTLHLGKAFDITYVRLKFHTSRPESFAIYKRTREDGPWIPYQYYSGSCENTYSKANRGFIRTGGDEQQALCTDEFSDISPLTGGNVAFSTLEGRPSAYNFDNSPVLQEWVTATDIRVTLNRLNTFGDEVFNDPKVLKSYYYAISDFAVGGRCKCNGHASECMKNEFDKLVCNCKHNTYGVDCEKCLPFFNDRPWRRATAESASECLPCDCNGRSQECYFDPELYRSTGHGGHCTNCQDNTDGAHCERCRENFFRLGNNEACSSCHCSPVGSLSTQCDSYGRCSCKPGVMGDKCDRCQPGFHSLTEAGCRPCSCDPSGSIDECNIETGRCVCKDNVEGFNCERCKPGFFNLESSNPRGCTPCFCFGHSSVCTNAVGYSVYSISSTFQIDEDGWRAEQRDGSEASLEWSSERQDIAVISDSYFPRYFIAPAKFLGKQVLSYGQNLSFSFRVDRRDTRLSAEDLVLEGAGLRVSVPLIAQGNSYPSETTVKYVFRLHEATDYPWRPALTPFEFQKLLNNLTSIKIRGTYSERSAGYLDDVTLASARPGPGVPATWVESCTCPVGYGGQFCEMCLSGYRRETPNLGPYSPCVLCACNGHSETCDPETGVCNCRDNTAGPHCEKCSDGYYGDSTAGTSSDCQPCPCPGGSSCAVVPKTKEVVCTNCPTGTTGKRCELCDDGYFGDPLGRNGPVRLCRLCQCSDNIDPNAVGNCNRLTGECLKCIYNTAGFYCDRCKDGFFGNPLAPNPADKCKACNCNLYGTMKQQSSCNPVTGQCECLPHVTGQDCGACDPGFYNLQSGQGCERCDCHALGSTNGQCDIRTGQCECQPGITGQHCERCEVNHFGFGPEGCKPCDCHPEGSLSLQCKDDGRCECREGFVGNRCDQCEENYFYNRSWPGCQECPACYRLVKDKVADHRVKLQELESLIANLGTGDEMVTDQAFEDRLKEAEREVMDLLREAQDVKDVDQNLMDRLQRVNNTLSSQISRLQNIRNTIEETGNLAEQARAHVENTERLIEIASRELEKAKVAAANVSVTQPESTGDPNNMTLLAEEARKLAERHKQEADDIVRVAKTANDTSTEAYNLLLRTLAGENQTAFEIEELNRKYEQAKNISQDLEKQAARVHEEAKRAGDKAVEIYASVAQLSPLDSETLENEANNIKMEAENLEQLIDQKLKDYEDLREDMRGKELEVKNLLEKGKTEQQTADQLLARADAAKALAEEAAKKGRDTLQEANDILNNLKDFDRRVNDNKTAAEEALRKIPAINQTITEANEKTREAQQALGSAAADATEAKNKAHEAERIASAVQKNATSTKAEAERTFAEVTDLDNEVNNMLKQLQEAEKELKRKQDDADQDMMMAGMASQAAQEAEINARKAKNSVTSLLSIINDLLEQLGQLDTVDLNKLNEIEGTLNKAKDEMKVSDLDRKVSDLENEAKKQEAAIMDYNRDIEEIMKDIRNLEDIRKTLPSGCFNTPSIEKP
UniProt P13473: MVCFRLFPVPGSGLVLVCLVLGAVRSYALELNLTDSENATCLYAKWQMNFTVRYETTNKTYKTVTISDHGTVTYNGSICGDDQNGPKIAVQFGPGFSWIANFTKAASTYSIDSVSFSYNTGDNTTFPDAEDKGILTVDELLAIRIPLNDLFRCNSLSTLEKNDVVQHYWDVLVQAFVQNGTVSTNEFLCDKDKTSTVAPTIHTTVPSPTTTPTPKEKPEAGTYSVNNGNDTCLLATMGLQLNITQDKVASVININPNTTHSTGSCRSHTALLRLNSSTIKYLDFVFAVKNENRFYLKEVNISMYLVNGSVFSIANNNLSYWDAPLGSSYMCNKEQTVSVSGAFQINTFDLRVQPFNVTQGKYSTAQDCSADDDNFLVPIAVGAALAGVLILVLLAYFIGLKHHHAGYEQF
UniProt Q15048: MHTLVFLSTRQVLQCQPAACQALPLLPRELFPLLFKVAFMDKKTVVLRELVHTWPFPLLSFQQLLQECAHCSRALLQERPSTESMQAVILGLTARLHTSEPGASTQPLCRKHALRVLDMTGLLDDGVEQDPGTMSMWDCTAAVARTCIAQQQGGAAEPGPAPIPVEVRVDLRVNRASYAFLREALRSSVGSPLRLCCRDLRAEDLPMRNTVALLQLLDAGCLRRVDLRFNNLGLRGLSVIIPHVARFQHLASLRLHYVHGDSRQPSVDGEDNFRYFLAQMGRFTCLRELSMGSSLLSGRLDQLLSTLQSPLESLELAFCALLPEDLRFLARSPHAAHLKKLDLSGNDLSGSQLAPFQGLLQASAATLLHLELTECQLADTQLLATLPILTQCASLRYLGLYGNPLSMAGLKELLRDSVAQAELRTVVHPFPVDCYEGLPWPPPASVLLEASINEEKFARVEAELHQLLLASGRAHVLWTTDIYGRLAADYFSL
UniProt Q5TKA1: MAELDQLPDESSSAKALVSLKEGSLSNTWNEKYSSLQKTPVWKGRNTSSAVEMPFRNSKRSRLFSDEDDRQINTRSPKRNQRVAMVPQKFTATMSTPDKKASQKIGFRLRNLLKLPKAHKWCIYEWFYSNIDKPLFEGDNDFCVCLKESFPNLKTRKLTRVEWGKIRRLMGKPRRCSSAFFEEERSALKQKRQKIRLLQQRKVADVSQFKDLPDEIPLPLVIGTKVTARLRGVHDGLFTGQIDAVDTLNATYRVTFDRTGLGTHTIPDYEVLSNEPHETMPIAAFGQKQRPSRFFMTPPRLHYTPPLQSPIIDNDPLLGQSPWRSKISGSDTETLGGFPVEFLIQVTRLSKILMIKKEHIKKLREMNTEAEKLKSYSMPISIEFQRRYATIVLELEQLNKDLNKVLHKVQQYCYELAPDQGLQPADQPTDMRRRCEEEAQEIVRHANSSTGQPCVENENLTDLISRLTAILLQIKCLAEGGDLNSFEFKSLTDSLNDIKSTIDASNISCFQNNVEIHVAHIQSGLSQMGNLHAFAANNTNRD
UniProt Q8NG48: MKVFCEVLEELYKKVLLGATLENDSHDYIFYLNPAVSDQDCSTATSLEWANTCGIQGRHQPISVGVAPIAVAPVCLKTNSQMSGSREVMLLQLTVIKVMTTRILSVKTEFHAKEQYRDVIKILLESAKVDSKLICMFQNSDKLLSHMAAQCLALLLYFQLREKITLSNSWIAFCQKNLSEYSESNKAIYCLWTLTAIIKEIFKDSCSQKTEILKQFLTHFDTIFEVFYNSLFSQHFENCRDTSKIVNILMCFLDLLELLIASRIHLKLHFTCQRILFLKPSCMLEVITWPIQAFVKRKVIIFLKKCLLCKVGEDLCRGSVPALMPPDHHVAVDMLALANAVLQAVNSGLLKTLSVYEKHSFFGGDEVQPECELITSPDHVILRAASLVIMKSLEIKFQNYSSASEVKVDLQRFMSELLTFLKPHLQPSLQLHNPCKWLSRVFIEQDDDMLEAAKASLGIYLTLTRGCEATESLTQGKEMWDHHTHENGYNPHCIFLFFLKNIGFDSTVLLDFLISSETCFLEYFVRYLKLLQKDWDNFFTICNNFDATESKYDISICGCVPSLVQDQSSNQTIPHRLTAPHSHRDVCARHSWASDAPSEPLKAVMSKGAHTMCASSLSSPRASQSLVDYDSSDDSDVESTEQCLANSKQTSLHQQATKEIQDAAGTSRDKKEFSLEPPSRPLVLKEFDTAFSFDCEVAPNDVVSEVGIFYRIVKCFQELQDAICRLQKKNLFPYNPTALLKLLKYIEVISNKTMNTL
UniProt Q9GZZ8: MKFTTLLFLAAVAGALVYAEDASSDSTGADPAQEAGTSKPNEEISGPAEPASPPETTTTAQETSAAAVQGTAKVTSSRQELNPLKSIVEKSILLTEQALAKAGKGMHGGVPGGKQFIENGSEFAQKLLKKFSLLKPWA
UniProt Q86VI4: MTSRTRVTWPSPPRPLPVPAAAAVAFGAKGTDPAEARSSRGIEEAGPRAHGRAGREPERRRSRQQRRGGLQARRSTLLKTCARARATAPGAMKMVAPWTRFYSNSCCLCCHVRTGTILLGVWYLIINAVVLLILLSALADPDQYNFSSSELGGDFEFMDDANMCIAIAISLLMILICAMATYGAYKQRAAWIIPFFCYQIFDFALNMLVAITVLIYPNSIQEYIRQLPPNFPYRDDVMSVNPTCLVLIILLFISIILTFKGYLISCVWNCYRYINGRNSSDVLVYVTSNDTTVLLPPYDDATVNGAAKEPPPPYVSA
UniProt Q643R3: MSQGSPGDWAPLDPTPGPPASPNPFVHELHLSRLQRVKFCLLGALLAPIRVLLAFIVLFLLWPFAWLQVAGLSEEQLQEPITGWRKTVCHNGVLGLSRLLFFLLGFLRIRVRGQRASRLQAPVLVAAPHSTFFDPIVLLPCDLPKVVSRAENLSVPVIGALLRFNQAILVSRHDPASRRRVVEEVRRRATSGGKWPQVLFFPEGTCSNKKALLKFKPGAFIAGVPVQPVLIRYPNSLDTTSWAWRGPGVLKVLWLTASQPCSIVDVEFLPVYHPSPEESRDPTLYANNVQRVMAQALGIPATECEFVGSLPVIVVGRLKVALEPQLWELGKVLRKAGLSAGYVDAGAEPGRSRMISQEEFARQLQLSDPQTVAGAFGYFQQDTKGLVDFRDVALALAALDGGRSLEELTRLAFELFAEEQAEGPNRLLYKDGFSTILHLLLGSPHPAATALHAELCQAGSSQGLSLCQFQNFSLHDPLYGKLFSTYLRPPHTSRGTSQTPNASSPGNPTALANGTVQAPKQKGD
UniProt Q86WU2: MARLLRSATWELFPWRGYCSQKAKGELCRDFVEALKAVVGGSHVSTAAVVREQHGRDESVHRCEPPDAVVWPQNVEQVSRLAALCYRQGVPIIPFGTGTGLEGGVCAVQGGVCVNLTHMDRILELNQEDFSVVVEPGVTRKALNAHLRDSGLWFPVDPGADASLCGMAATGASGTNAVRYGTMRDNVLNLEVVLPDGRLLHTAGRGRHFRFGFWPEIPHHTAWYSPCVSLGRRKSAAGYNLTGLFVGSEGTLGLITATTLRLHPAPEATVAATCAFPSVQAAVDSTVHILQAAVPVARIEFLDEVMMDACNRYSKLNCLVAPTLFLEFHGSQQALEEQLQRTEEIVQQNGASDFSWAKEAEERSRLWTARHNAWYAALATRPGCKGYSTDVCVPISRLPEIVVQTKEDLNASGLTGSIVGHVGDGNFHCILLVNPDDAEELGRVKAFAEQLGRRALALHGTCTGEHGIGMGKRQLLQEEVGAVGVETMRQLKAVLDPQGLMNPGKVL

compound: CN1CCN(CCOc2cc(OC3CCOCC3)c3c(Nc4c(Cl)ccc5c4OCO5)ncnc3c2)CC1 [saracatinib]; test: log2 fold change, soluble protein after heating vs DMSO (PISA); higher = thermal stabilisation; K562 cells, 10 uM, 30 min; active = over 0.2 and 3.5 SD of the protein, either way, in both replicates (recomputed)
Summary of the method: (§1)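 K562 cells at 2×10^6 cells/mL were given 10 μM compound for 30 min. Aliquots then went through 3 min of heating across 48°C-58°C, were pooled, and were extracted in PBS with 0.5% NP-40 at 4°C, and the supernatant after 21,000xg for 90 min was quantified by TMTpro 16plex LC-MS/MS with channel sums equalised. Thermal stability relative to control samples, from duplicates, is given as log2 fold change.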

Target	log2 fold change
LAPTM5 (UniProt Q13571)	inactive: 0.105
LMLN isoform 3 (UniProt Q96KR4)	inactive: -0.374
LRP1 (UniProt Q07954)	inactive: 0.128
LEPROT (UniProt O15243)	inactive: -0.261
LIN52 (UniProt Q52LA3)	inactive: 0.038
LAMB2 (UniProt P55268)	inactive: -0.205
L1TD1 (UniProt Q5T7N2)	inactive: -0.155
KXD1 (UniProt Q9BQD3)	inactive: -0.097
LGALSL (UniProt Q3ZCW2)	inactive: 0.055
LAMC1 (UniProt P11047)	inactive: 0.041
LAMP2 isoform 2 (UniProt P13473)	inactive: 0.24
LRRC14 (UniProt Q15048)	inactive: -0.02
LGALS3 (UniProt P17931)	inactive: -0.017

compound: CN1CCN(c2nc(C3=C(c4c[nH]c5ccccc45)C(=O)NC3=O)c3ccccc3n2)CC1 [sotrastaurin]; test: as above
Summary of the method: as §1

Target	log2 fold change
LIMK1 (UniProt P53667)	inactive: 0.117
LARP1B, A0A3B3ISF0	inactive: 0.037
LIMD2 (UniProt Q9BT23)	inactive: 0.136
LPP (UniProt Q93052)	inactive: 0.141
LIN9 isoform 2 (UniProt Q5TKA1)	inactive: -0.207
LIN37 (UniProt Q96GY3)	inactive: 0.031
LAPTM4A (UniProt Q15012)	inactive: -0.052
LINS1 (UniProt Q8NG48)	inactive: 0.071
LARGE2 (UniProt Q8N3Y3)	inactive: 0.007
LCN2 isoform 2 (UniProt P80188)	inactive: -0.151
LACRT (UniProt Q9GZZ8)	inactive: 0.095
LRRC41 (UniProt Q15345)	inactive: -0.336
LAPTM4B (UniProt Q86VI4)	inactive: -0.194
LDHC (UniProt P07864)	inactive: -0.045

compound: CN1CC[C@H](c2c(O)cc(O)c3c(=O)cc(-c4ccccc4Cl)oc23)[C@H](O)C1 [alvocidib]; test: as above
Summary of the method: as §1

Target	log2 fold change
LLGL2 (UniProt Q6P1M3)	inactive: 0.219
LAPTM5 (UniProt Q13571)	inactive: 0.18
LIMD2 (UniProt Q9BT23)	inactive: 0.113
LPCAT4 (UniProt Q643R3)	inactive: 0.009
LIN9 isoform 2 (UniProt Q5TKA1)	inactive: -0.017
L1TD1 (UniProt Q5T7N2)	inactive: 0.062
LAMA2 (UniProt P24043)	inactive: 0.087
LACRT (UniProt Q9GZZ8)	inactive: 0.08
LDHD (UniProt Q86WU2)	inactive: -0.075
LIMS1 isoform 5 (UniProt P48059)	inactive: 0.275
LBHD1 (UniProt Q9BQE6)	inactive: -0.022
